# The list shows a part of the results. Shown are side measurements of this screen, not its main read-out; they come without a call. Most of these compounds were active or inconclusive in the main read-out, so they are no random draw. Potencies come from curve fits of mixed quality, noted in brackets.
# Assay: qHTS Assay for Modulators of Lamin A Splicing
# Details: HeLa LMNA splicing GFP/RFP minigene ratio, 48 h
# Summary of the method: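 S3 HeLa stable clones carrying a lamin A-EGFP splicing minigene plus DsRed2 were seeded at 600 cells/well in Opti-MEM with 2% FBS, pin-dosed and incubated 48 h at 37°C. Acumen cytometry (488 nm) gave the GFP/RFP total-intensity ratio.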
# [1] = measured here: RFP viability control channel
# [2] = measured here: GFP splicing reporter channel
SMILES,AC50 [1],AC50 [2]
Cc1ccc(-c2nnc(SCc3ccccc3F)o2)cc1,"31.6 µM [rising, single point]",
COc1cc(Nc2ncc3c(n2)CCN(Cc2cc(Br)cs2)C3)cc(OC)c1,,"35.5 µM [falling, single point]"
COC(=O)c1cc(C(=O)c2ccc(C(C)(C)C)cc2)c[nH]1,"12.6 µM [falling, partial curve]","3.98 µM [falling, partial curve]"
CCCC(=O)c1cc2ccccc2oc1=O,"12.6 µM [rising, single point]",
CCCCN=c1scc(-c2ccc3c(c2)NC(=O)CO3)n1N=C1CCCC1,"22.4 µM [rising, single point]",
Oc1cccc(-c2nc3ccc4ccccc4c3c3c2CCC3)c1,"14.1 µM [falling, partial curve]","35.5 µM [falling, single point]"
Cc1sc(NC(=O)Cc2ccc3c(c2)OCO3)nc1-c1ccc2c(c1)CCN2C(=O)c1ccccc1F,"4.47 µM [rising, full curve]",
Cc1occc1C(=O)Nc1ccc(OCc2ccccc2)cc1,,"14.1 µM [rising, single point]"
Cc1ccc(Cl)cc1Nc1nc(-c2sc(NC(=O)c3ccco3)nc2C)cs1,"3.16 µM [falling, single point]","5.01 µM [falling, single point]"
CCOc1ccc(OCCSc2nnnn2C2CCCCC2)cc1,"35.5 µM [rising, single point]","35.5 µM [rising, single point]"
Cc1ccc(S(=O)(=O)Nc2ccc(C(OC(=O)c3ccccc3[N+](=O)[O-])(C(F)(F)F)C(F)(F)F)cc2)cc1,"2.24 µM [rising, single point]",
Cc1cc(C)n2nc(C(=O)OCC(=O)N3CCC3)nc2n1,,"0.794 µM [falling, full curve, poor fit]"
Cc1cc2c(cc1C)N(C(=O)CN1C(=O)c3ccccc3C1=O)C(C)(C)c1ssc(=S)c1-2,"35.5 µM [rising, single point]",
COc1ccc(-c2n[nH]c(C(F)(F)F)c2-c2cc3ccccc3o2)c(O)c1,,"35.5 µM [rising, single point]"
Cn1c(-c2ccc3c(c2)OCO3)cc(=O)c2ccccc21,"3.16 µM [falling, single point]","5.01 µM [falling, single point]"
CCc1nnc(NS(=O)(=O)c2ccc(NC(=S)NC(=O)c3ccccc3)cc2)s1,"0.0224 µM [rising, full curve, poor fit]",
CCOc1ccc(C(C)=O)cc1CN1C(=O)NC(C)(C2CC2)C1=O (stereo not drawn),"0.316 µM [falling, full curve, poor fit]","0.0891 µM [falling, full curve]"
CC[C@@H](C)[C@H](NS(=O)(=O)c1ccc(C)cc1)C(=O)N1CCC(C(=O)NCC(=O)O)CC1,"3.16 µM [falling, single point]",
C[C@@H](NC(=O)c1coc(=O)c(Br)c1)c1ccccc1,"31.6 µM [rising, single point]",
NS(=O)(=O)c1ccc(NC(=O)COc2ncnc3c2cnn3-c2ccccc2)cc1,"1.58 µM [rising, partial curve, poor fit]","1 µM [rising, full curve, poor fit]"
CCOC(=O)N1CCN(CC(O)COc2ccc(C)cc2C(C)(C)C)CC1 (stereo not drawn),"15.8 µM [rising, partial curve, poor fit]","10 µM [rising, partial curve, poor fit]"
O=C(NCC(c1cccnc1)N1CCN(c2ccc(F)cc2)CC1)OCc1ccccc1 (stereo not drawn),"31.6 µM [rising, single point]",
COc1ccc2c(-c3ccccc3)cc(=O)[nH]c2c1,,"0.00398 µM [rising, full curve, poor fit]"
CC(NCc1ccc2c(c1)OCO2)C(=O)NC1CCCCC1 (stereo not drawn),,"1.41 µM [rising, full curve, poor fit]"
O=C(Nc1ccc2nc(SCC(=O)N3CCc4ccccc43)sc2c1)c1ccc(F)cc1,"35.5 µM [falling, partial curve]","35.5 µM [falling, single point]"
COc1cccc(CN(C(=O)/C=C/c2ccc(Cl)cc2)C2CCS(=O)(=O)C2)c1 (stereo not drawn),"35.5 µM [falling, partial curve]","35.5 µM [falling, partial curve]"
CCn1c(-c2ccc(F)cc2)cnc1SCC(=O)N1CCc2ccccc21,"25.1 µM [rising, single point]",
Cc1cc[n+](CC(=O)c2ccc(NC(=O)c3ccccc3)cc2)c2ccccc12,,"11.2 µM [falling, partial curve]"

# Gathered by group, those above with bromine (two)
SMILES,AC50 [1],AC50 [2]
COc1cc(Nc2ncc3c(n2)CCN(Cc2cc(Br)cs2)C3)cc(OC)c1,,"35.5 µM [falling, single point]"
C[C@@H](NC(=O)c1coc(=O)c(Br)c1)c1ccccc1,"31.6 µM [rising, single point]",

# (more compounds)

SMILES,AC50 [1],AC50 [2]
Cc1nc([N+](=O)[O-])nn1C12CC3CC(CC(Br)(C3)C1)C2,"5.62 µM [falling, single point]","6.31 µM [falling, single point]"
O=C(CCC(=O)c1cccs1)c1cccs1,"35.5 µM [falling, single point]",
CCc1nc(SCc2ccccn2)[nH]c(=O)c1C,"31.6 µM [rising, partial curve]",
COc1ccc(-c2noc(CCC(=O)N(C)c3cccc(C)c3)n2)cc1,"35.5 µM [rising, single point]",
OC1CCCN(c2c3c(nc4cc(-c5cccc(Cl)c5)nn24)CCC3)C1 (stereo not drawn),"35.5 µM [rising, single point]",
Cc1ccc(CNC(=O)c2ccc(N3CCc4ccccc43)c([N+](=O)[O-])c2)cc1,"20 µM [rising, single point]",
CC(C)=C1C2CC2C2C(C(=O)O)C12 (stereo not drawn),"2.82 µM [rising, partial curve, poor fit]","5.01 µM [rising, partial curve]"
COc1ccc(NC(=O)Cn2nnc(-c3ccccc3NC(=O)c3ccco3)n2)cc1,"4.47 µM [rising, single point]",
Cc1c(/C=N/NC(=O)c2cccnc2)c2ccccc2n1Cc1ccccc1,,"0.00316 µM [rising, full curve, poor fit]"
CCOc1ccc(C(=O)Nc2cccc(SC)c2)cc1,"10 µM [rising, partial curve]","6.31 µM [rising, partial curve, poor fit]"
COc1ccc(NC(=O)C2CCCN(S(=O)(=O)c3cccc4cccnc34)C2)cc1OC (stereo not drawn),"3.98 µM [rising, partial curve]",
Cc1cccc(OCc2nc(-c3ccccn3)n[nH]2)c1,"15.8 µM [rising, partial curve]","11.2 µM [rising, partial curve]"
Fc1ccc(Cn2cccc2C2=NC(c3ccccc3)CO2)cc1 (stereo not drawn),"1.41 µM [rising, partial curve]","2.51 µM [rising, partial curve, poor fit]"
O=C(NN1C(=O)/C(=C/c2cccnc2)SC1=S)C(c1ccccc1)c1ccccc1,"35.5 µM [falling, single point]","12.6 µM [falling, single point]"
O=C(CN1CCOCC1)Nc1cccc(C(=O)Nc2cccc(C(F)(F)F)c2)c1,"22.4 µM [rising, partial curve, poor fit]",
Cc1cccc(OCc2nnc(SCC(=O)N(C(C)C)C(C)C)n2Cc2ccco2)c1C,"8.91 µM [rising, partial curve]","2.51 µM [rising, full curve, poor fit]"
Oc1c(C(c2ccc(Cl)cc2Cl)N2CCN(c3ccccc3)CC2)sc2nc(-c3ccco3)nn12 (stereo not drawn),"11.2 µM [falling, partial curve]","14.1 µM [falling, partial curve]"
CCCCC(CC)CNC(=O)Cn1c(=O)[nH]c2ccsc2c1=O (stereo not drawn),,"1.41 µM [rising, full curve, poor fit]"
CCN(CC)CCNC(=O)c1c(C)n(-c2ccccc2)c2cc(Br)c(OC)cc12,"12.6 µM [falling, single point]","0.1 µM [falling, partial curve]"
CCN1C(C(=O)c2ccccc2)=C(Nc2ccccc2C)c2ccccc2S1(=O)=O,"14.1 µM [rising, partial curve]","11.2 µM [rising, partial curve]"
CCn1c(CSc2ncccn2)nnc1SCC(=O)N1CCc2ccccc21,,"0.282 µM [rising, single point]"
Cc1nc2ccc(NS(=O)(=O)c3ccc4c(c3)OCCO4)cc2s1,"0.708 µM [rising, full curve]",
O=c1[nH]c(-c2ccccn2)nc2ccccc12,"35.5 µM [rising, single point]",
Cc1onc(-c2ccccc2Cl)c1C(=O)Oc1cccc2cccnc12,"35.5 µM [falling, single point]","3.16 µM [falling, partial curve]"
COc1ccc(Oc2c(-c3ccc(O)cc3O)n[nH]c2C)cc1,"12.6 µM [rising, partial curve]","12.6 µM [rising, single point]"
CC(=O)c1cn(CC(=O)Nc2ccc(C)cc2C)c2ccccc12,"3.16 µM [rising, full curve]",
Cc1ccc(S(=O)(=O)Nc2nc3ccccc3nc2NCc2ccco2)cc1C,"5.62 µM [rising, full curve]","2.82 µM [rising, full curve]"

# 3 of the compounds above, with bars between the fields:
SMILES | AC50 [1] | AC50 [2]
Cc1cc[n+](CC(=O)c2ccc(NC(=O)c3ccccc3)cc2)c2ccccc12 |  | 11.2 µM [falling, partial curve]
COc1ccc(NC(=O)C2CCCN(S(=O)(=O)c3cccc4cccnc34)C2)cc1OC (stereo not drawn) | 3.98 µM [rising, partial curve] | 
Cc1cccc(OCc2nc(-c3ccccn3)n[nH]2)c1 | 15.8 µM [rising, partial curve] | 11.2 µM [rising, partial curve]
